Data from article PMC8184955.

Sequences of proteins named here, by UniProt entry; tags and fusion partners are left off. A change or cut given only in a name is not applied to a line headed by its entry. Residues count along the entry.
UniProt P16422, 24-314: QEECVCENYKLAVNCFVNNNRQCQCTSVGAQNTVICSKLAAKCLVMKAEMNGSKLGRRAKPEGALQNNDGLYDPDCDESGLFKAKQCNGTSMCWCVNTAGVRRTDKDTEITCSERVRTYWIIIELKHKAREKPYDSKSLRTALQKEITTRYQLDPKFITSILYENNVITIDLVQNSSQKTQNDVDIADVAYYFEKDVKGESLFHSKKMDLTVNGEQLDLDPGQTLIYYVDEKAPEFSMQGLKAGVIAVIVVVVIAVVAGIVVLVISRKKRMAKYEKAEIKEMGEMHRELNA
UniProt P15941: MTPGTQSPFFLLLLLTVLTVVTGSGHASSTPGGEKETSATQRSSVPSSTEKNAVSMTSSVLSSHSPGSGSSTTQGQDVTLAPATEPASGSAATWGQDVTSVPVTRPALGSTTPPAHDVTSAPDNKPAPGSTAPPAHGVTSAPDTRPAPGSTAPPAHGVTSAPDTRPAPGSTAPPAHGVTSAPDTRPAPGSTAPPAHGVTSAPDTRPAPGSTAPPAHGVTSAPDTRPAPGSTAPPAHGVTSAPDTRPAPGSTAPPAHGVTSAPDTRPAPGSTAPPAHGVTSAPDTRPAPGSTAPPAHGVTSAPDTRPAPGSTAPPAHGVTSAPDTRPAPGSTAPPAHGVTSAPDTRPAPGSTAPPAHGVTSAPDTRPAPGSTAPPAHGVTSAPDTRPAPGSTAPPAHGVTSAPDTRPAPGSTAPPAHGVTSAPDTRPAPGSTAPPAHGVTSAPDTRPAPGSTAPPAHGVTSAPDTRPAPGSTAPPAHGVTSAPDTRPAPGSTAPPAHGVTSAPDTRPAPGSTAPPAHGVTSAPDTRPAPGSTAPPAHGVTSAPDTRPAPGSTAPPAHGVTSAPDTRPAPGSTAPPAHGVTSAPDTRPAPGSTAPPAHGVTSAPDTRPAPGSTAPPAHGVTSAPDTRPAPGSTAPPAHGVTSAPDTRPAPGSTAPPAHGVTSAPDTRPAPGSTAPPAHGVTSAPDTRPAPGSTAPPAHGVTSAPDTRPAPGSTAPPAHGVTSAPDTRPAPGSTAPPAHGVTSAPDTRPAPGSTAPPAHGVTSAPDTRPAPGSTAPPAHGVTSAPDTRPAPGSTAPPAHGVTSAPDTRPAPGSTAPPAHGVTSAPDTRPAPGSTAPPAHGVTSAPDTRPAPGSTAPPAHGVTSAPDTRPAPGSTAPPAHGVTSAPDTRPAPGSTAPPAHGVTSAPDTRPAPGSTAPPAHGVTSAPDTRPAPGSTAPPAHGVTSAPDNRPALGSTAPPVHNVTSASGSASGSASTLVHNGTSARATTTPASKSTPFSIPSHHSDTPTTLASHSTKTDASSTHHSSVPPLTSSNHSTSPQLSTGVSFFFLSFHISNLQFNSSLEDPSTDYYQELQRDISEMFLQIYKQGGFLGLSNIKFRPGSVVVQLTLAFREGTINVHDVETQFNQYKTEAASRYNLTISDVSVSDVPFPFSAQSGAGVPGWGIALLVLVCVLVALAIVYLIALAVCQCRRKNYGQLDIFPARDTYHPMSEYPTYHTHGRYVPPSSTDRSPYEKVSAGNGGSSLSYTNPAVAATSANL
UniProt P19338, 2-710: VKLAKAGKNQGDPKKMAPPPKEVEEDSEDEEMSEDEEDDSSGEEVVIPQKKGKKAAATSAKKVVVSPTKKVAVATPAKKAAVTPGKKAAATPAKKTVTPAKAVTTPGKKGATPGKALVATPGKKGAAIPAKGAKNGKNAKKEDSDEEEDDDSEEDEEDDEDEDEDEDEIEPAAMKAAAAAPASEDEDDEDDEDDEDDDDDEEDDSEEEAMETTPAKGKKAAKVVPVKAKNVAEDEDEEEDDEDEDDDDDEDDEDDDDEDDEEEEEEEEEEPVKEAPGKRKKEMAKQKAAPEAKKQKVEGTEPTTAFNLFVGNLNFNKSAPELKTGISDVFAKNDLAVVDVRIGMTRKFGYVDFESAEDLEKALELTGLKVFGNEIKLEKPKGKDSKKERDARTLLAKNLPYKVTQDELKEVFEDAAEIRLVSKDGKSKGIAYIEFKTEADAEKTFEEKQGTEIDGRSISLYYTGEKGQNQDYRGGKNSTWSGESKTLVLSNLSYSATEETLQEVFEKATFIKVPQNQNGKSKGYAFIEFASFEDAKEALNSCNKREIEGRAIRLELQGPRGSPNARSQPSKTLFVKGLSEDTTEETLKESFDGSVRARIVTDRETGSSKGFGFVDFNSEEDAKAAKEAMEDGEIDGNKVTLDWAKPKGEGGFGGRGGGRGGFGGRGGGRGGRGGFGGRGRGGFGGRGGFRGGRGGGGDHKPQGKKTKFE

Key:
HER2 = HER2 (UniProt P04626); experiment: live-cell staining, whole-cell Raman; conditions: 5 mM MgCl2, 10 nM Rdot conjugate; 5' amino modifier C6 (5AmMC6); DPBS, 5 mM MgCl2, 1 mg/mL yeast tRNA, 1% BSA; 10 nM Rdot conjugates, 30 min on ice; aptamers annealed at 90 C for 4 min then slowly cooled to RT; protein on the cell surface; label: Rdot2052 (40 nm PEGylated Raman dot, via 5' amine); single-stranded DNA
EpCAM = EpCAM (UniProt P16422); experiment: live-cell staining, whole-cell Raman and SRS imaging; conditions: 5 mM MgCl2, 10 nM Rdot conjugate; 5' amino modifier C6 (5AmMC6); DPBS, 5 mM MgCl2, 1 mg/mL yeast tRNA, 1% BSA; 10 nM Rdot conjugates, 30 min on ice; aptamers annealed at 90 C for 4 min then slowly cooled to RT; protein on the cell surface; label: Rdot2194 (40 nm PEGylated Raman dot, via 5' amine); single-stranded DNA
MUC1 = MUC1 (UniProt P15941); experiment: live-cell staining, whole-cell Raman; conditions: 5 mM MgCl2, 10 nM Rdot conjugate; 5' amino modifier C6 (5AmMC6); DPBS, 5 mM MgCl2, 1 mg/mL yeast tRNA, 1% BSA; 10 nM Rdot conjugates, 30 min on ice; aptamers annealed at 90 C for 4 min then slowly cooled to RT; protein on the cell surface; label: Rdot2175 (40 nm PEGylated Raman dot, via 5' amine); single-stranded DNA
nucleolin = nucleolin (UniProt P19338); experiment: live-cell staining, whole-cell Raman; conditions: 5 mM MgCl2, 10 nM Rdot conjugate; 5' amino modifier C6 (5AmMC6); DPBS, 5 mM MgCl2, 1 mg/mL yeast tRNA, 1% BSA; 10 nM Rdot conjugates, 30 min on ice; aptamers annealed at 90 C for 4 min then slowly cooled to RT; protein on the cell surface; label: Rdot2218 (40 nm PEGylated Raman dot, via 5' amine); single-stranded DNA

TTTTTTAACCGCCCAAATCCCTAAGAGTCTGCACTTGTCATTTTGTATATGTATTTGGTTTTTGGCTCTCACAGACACACTACACACGCACA [HER2 aptamer]
binding result (HER2): binds

TTTTTTCACTACAGAGGTTGCGTCTGTCCCACGTTGTCATGGGGGGTTGGCCTG [EpCAM aptamer]
binding result (EpCAM): binds

TTTTTTGCAGTTGATCCTTTGGATACCCTGG [MUC1 aptamer]
binding result (MUC1): binds

TTTTTTGGTGGTGGTGGTTGTGGTGGTGGTGG [Nucleolin aptamer]
binding result (nucleolin): binds

For at least one entry, the source does not settle the construct or the ends of the probe. Where cells or extracts were used, other partners may take part. At least one verdict rests on a figure or table, not on a statement of the authors.
